This note sets out measurements from PubChem BioAssay AID434947 (Broad Institute, 2010).

In all, about 2,200 compounds went through this assay and about 15 (0.7%) were called active.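 The calls were made as follows: active = fitted half-maximal concentration for loss of luminescence signal no more than a set limit of log units above the top tested concentration; inconclusive = flat fit with 30 to 70% signal loss, or invalid fit; inactive = half-maximal concentration above that set limit.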 The list shows a part of the results. Some results are limits rather than exact numbers.

This test in a line: inhibitors of ADP-Glo detection reagents, dose response, artefact control for GSK3beta inhibitor project, biochemical, luminescence, cell-free, homogeneous (AID 434947).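 Also: kinase-free counter screen of ADP-Glo detection reagents for GSK3beta hits.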 The settings on record: 5 uM ADP.
What is called EC50 is the concentration at which the effect is half-maximal. As for `COc1ccc(OC)c(Nc2nc(NCCC(C)C)nc(N)c2[N+](=O)[O-])c1`, the EC50 was inactive: > 30 µM. With `CCc1ccc(Oc2ncnc(N)c2[N+](=O)[O-])cc1` the figure was inactive: > 30 µM; with `Cc1c(Cc2ccccc2)c(=O)oc2cc(O)cc(O)c12`, inactive: > 30 µM; with `CCOC(=O)c1sc2c(c1C)C(c1cccs1)C1=C(CCCC1=O)N2` (stereo not drawn), inactive: > 30 µM. As for `CC(C)[C@H](CO)Nc1nc(NCc2ccc(S(N)(=O)=O)cc2)c2ncn(C(C)C)c2n1`, the EC50 was inactive: > 30 µM. Turning to `CC(=O)N1CCc2c(sc(NC(=O)Cc3ccc(F)cc3)c2C(N)=O)C1`, the EC50 is inactive: > 30 µM. For the compound `CCNC(=S)Nc1ccc2cn[nH]c2c1`, the EC50 was inactive: > 30 µM. As to `CC(C)n1cnc2c(Nc3cccc(Cl)c3)nc(NCCCO)nc21`, the EC50 is inactive: > 30 µM.

With `Cc1nccc(-c2cccc(NC(=O)c3ccccc3Cl)c2)n1`, the EC50 is inactive: > 30 µM. For the compound `CC(C(=O)NCc1ccco1)n1cc([N+](=O)[O-])cn1` (stereo not drawn), the EC50 was inactive: > 30 µM. Take `C[C@@H]1O[C@@H](OC[C@H]2O[C@@H](Oc3c(-c4ccc(O)c(O)c4)oc4cc(O)cc(O)c4c3=O)[C@H](O)[C@@H](O)[C@@H]2O)[C@H](O)[C@H](O)[C@H]1O`: the EC50 was inactive: > 30 µM.

As for `CN(C)c1nc(N)c([N+](=O)[O-])c(NCC2CCCO2)n1` (stereo not drawn), the EC50 is inactive: > 30 µM.

In the case of `N#Cc1ccc(CSc2nnc(-c3ccncc3)o2)cc1`, the EC50 was inactive: > 30 µM. For the compound `COC(=O)c1sccc1NC(=O)c1cccc(OC)c1`, the EC50 was inactive: > 30 µM.

Regarding `Cc1c(NC(=O)CSc2nnc3sc4ccccc4n23)c(=O)n(-c2ccccc2)n1C`, the EC50 was inactive: > 30 µM. Next, `Cc1nnc(SCC(=O)Nc2ccc(Cl)cn2)[nH]c1=O`: inactive: > 30 µM.

Consider `Cc1ccc(Nc2nc(N)c([N+](=O)[O-])c(NCc3ccco3)n2)cc1`, for which the EC50 is inactive: > 30 µM. As for `COc1ccc2c(c1)-c1c(sn(-c3ccccc3)c1=S)C(C)(C)N2`, the EC50 is inactive: > 30 µM. Turning to `CCOC(=O)c1cnc2ccc(OCC)cc2c1N1CCN(c2ccccc2)CC1`, the EC50 is inactive: > 30 µM. On to `Cc1nc(NCCCn2ccnc2)c2ccccc2n1`, for which the EC50 is inactive: > 30 µM.

With `COc1ccc(-c2nnc3ccc(SCC(N)=O)nn23)cc1OC`, the EC50 was inactive: > 30 µM. With `N#Cc1ccccc1CSc1nnc(Cc2ccccc2)o1`, the EC50 was inactive: > 30 µM. Take `CCC(C)Nc1nc(N)c([N+](=O)[O-])c(NCc2ccccc2)n1` (stereo not drawn): the EC50 was inactive: > 30 µM. With `COc1ccc(NC(=O)c2cccc(N3C(=O)c4cccc([N+](=O)[O-])c4C3=O)c2)cc1` the figure was inactive: > 30 µM; with `COc1ccc(Nc2nc3ccc(OC)cc3s2)cc1`, inactive: > 30 µM; with `COc1ccc(/C=C/C(=O)NC2CCN(Cc3ccccc3)CC2)cc1OC`, inactive: > 30 µM. With `CNc1nc(N)c(C(=O)C(C)(C)C)s1`, the EC50 was inactive: > 30 µM. With `CS(=O)(=O)N(CCc1ccccc1)CC(=O)N1CCN(c2ccccc2F)CC1`, the EC50 was inactive: > 30 µM. As to `CCN1C(=O)[C@H]2[C@@H](c3ccc(-c4ccccc4)cc3)N[C@@](CC(C)C)(C(=O)OC)[C@H]2C1=O`, the EC50 was inactive: > 30 µM. In the case of `CCOC(=O)c1c(C)[nH]c(O)c1C=Nc1ccccc1`, the EC50 is inactive: > 30 µM. On to `Nc1nonc1-n1nnc(C(=O)N/N=C/c2c(Cl)cccc2Cl)c1CN1CCOCC1`, for which the EC50 is inactive: > 30 µM. Turning to `CCOc1ccc(OCC)c(NC(=O)CSc2nnc(C3CC3)n2CC)c1`, the EC50 was inactive: > 30 µM.

On to `COCC(C)n1c(C)cc(C(=O)COC(=O)c2ccc3c(c2)NC(=O)CS3)c1C` (stereo not drawn), for which the EC50 was inactive: > 30 µM.

`Nc1ccc2oc(-c3ccccc3Cl)cc(=O)c2c1O`: the EC50 is inactive: > 30 µM. For the compound `CCc1c(C(=O)Nc2ccccc2C(N)=O)csc1C`, the EC50 is inactive: > 30 µM. As for `CC(=O)Oc1cc(C)cc2oc(=O)cc(-c3ccccc3)c12`, the EC50 is inactive: > 30 µM. With `CC(C)CNc1nc(N)c([N+](=O)[O-])c(N2CCCCCC2)n1`, the EC50 was inactive: > 30 µM.

As for `O=C1Nc2cc(C(=O)NCCCN3CCOCC3)ccc2S/C1=C/c1ccccc1F`, the EC50 was inactive: > 30 µM. Take `Fc1ccccc1CSc1nnc(-c2ccccc2)o1`: the EC50 is inactive: > 30 µM.

For `CCOC(=O)CSc1ccc2nnc(-c3cccs3)n2n1`, the EC50 was inactive: > 30 µM. With `CCC(C)Nc1nc(N)c([N+](=O)[O-])c(NCCO)n1` (stereo not drawn) the figure was inactive: > 30 µM; with `COc1ccccc1Nc1nc(NCCC(C)C)nc(N)c1[N+](=O)[O-]`, inactive: > 30 µM. `CC(CC(=O)Nc1nnc(C(C)(C)C)s1)c1ccccc1` (stereo not drawn): the EC50 is inactive: > 30 µM.

`COc1cccc2cc(C(=O)Oc3ccccc3)c(=O)oc12`: the EC50 is inactive: > 30 µM. As to `CCOc1ccc(NC(=O)Nc2cnccn2)cc1`, the EC50 was inactive: > 30 µM. For the compound `CC(C)CCNc1nc(N)c([N+](=O)[O-])c(NC2CCCCC2)n1`, the EC50 was inactive: > 30 µM. For the compound `CCn1c(SCC(=O)Nc2ccccc2Cl)nnc1C1CC1`, the EC50 is inactive: > 30 µM.

Turning to `Cc1ccc(NC(=O)CSCc2ccc(F)cc2)cc1`, the EC50 was inactive: > 30 µM.

Regarding `Fc1ccc(Nc2nc(-c3ccncc3)nc3ccccc23)cc1`, the EC50 is inactive: > 30 µM. Regarding `Cc1ccc(CNS(=O)(=O)c2c(C)[nH]c(=O)[nH]c2=O)cc1`, the EC50 was inactive: > 30 µM.

As for `O=C(O)/C=C/c1cccc2c1OCCO2`, the EC50 is inactive: > 30 µM.

With `COc1ccccc1C(=O)Oc1ccc(C(C)(C)C)cc1`, the EC50 was inactive: > 30 µM.

`C=CCn1c(=O)c(C(=O)NCc2ccc(Cl)cc2)c(O)c2ccccc21`: the EC50 was inactive: > 30 µM.

For the compound `O=C(c1cccs1)c1coc2ccc(O)c(CN3CCOCC3)c12`, the EC50 was inactive: > 30 µM. Consider `Cc1nc2sc(C(c3cccc(F)c3)N3CC(C)OC(C)C3)c(O)n2n1` (stereo not drawn), for which the EC50 is inactive: > 30 µM.

With `Nc1ccc(C(=O)Nc2ccccc2C(=O)O)cc1`, the EC50 is inactive: > 30 µM. Regarding `NC(=O)c1c(NC(=O)CN2CCCC2)sc2c1CCCC2`, the EC50 was inactive: > 30 µM.

As for `COc1ccccc1N1CCN(CCCNC(=O)C2CCCN(c3ncnc4c3nc3n4CCCCC3)C2)CC1` (stereo not drawn), the EC50 is inactive: > 30 µM. Regarding `COCCNc1nc(N)c([N+](=O)[O-])c(Nc2ccc(F)cc2)n1`, the EC50 is inactive: > 30 µM. As for `CN1CCc2c(sc3c2c(=O)n(-c2ccccc2)c2nnc(SCc4ccccc4)n32)C1`, the EC50 is inactive: > 30 µM. For `COc1ccc(OC)c(C(=O)c2coc3ccc(OC)cc23)c1`, the EC50 was inactive: > 30 µM.

On to `Cc1ccc(CNc2nc(N)c([N+](=O)[O-])c(Nc3cccc(F)c3)n2)cc1`, for which the EC50 was inactive: > 30 µM. `O=C(O)c1ccccc1N/N=C\c1ccnc2ccccc12`: the EC50 is inactive: > 30 µM. Regarding `Cc1ccc2c(c1)cc1c(=O)[nH]ncn12`, the EC50 was inactive: > 30 µM. Take `CCN(CC)Cc1c(C(=O)OC)nnn1-c1nonc1N`: the EC50 is inactive: > 30 µM.

As for `COc1cccc2cc(C(=O)CS(=O)(=O)c3ccc(C)cc3)c(=O)oc12`, the EC50 is inactive: > 30 µM.

`CCC(CC)NC(=O)COC(=O)c1ccc2c(c1)C(=O)N(Cc1ccco1)C2=O`: the EC50 was inactive: > 30 µM. Turning to `Cc1cc(OC(C)C)c2c(-c3ccccc3)cc(=O)oc2c1`, the EC50 is inactive: > 30 µM. In the case of `CCC(C)Nc1nc(N)c([N+](=O)[O-])c(Nc2ccccc2OC)n1` (stereo not drawn), the EC50 was inactive: > 30 µM. In the case of `O=C1Nc2cc(C(=O)NCCCN3CCCC3)ccc2S/C1=C/c1ccccc1F`, the EC50 was inactive: > 30 µM. Turning to `COc1cccc(C(=O)NCCCNC(=O)c2cccc(OC)c2)c1`, the EC50 was inactive: > 30 µM. Next, `O=C(O)CCn1cc(/C=C\C(=O)c2ccc(Cl)cc2)c(-c2cccc(Br)c2)n1`: inactive: > 30 µM; `O=C1c2ccccc2-c2onc3ccc(NCCCn4ccnc4)c1c23`: inactive: > 30 µM. With `CCc1ccc(CNC(=O)C2CCC(=O)N(CCc3ccc(Cl)cc3)C2)nc1` (stereo not drawn) the figure was inactive: > 30 µM; with `Cc1ccc(OCC(=O)N/N=C/c2ccccc2)c([N+](=O)[O-])c1`, inactive: > 30 µM.

As to `O=C1N=C(N2CCc3ccccc3C2)S/C1=C\c1ccc(O)cc1`, the EC50 is inactive: > 30 µM. On to `CCCCc1c(O)nc(SCC(=O)c2ccccc2)n(-c2ccccc2OC)c1=O`, for which the EC50 was inactive: > 30 µM. Consider `c1ccc(Cn2c(-c3ccco3)nc3nc4ccccc4nc32)cc1`, for which the EC50 is inactive: > 30 µM.

As for `CCC(OCC(O)CN1CCCCC1)c1ccccc1` (stereo not drawn), the EC50 was inactive: > 30 µM. Next, `CCOC(=O)c1nnn(-c2nonc2N)c1COc1ccccc1`: inactive: > 30 µM; `COC(=O)c1sccc1NC(=O)c1ccc(Br)s1`: inactive: > 30 µM; `CCCC(=O)Nc1nn(CC(C)C)c2nc3cc(C)ccc3cc12`: inactive: > 30 µM.

Consider `CCOc1cc(C(=O)OCC(=O)Nc2ccc(Cl)cn2)ccc1OCC(=O)N1CCOCC1`, for which the EC50 is inactive: > 30 µM. As for `CN1CCN(C(=O)c2ccc(OCCOc3ccccc3)cc2)CC1`, the EC50 is inactive: > 30 µM.

Consider `C=CCNC(=O)c1ccc(OC)cc1`, for which the EC50 was inactive: > 30 µM. In the case of `Cc1ccc(-n2c(=O)c3c4c(sc3n3c(=S)[nH]nc23)CCC4)cc1`, the EC50 is inactive: > 30 µM. Next, `CCn1c(SCc2ccccc2)nnc1-c1cccs1`: inactive: > 30 µM.

For the compound `CSc1nc(NCc2ccco2)c2c3c(sc2n1)CN(C)CC3`, the EC50 was inactive: > 30 µM. As to `CCN(CC)Cc1c(C(=O)OC(C)C)nnn1-c1nonc1N`, the EC50 was inactive: > 30 µM. For the compound `COc1cc(/C=N/O)ccc1Oc1ccc([N+](=O)[O-])cc1[N+](=O)[O-]`, the EC50 was inactive: > 30 µM. Next, `COc1ccc(Nc2nc(N)c([N+](=O)[O-])c(NCCO)n2)cc1`: inactive: > 30 µM; `O=C(COc1ccccc1)N1CCN(S(=O)(=O)c2cccs2)CC1`: inactive: > 30 µM. On to `Cc1c(C(=O)N/N=C/c2ccccn2)nnn1-c1nonc1N`, for which the EC50 is inactive: > 30 µM.
